Assay results from paper PMC2063392.
These are yes or no findings as the source states them, for the method shown. Some entries that bind do so weakly or less than the wild type.

Chains of the proteins cited; added tags and fusions are not shown. Residues count along the entry.
UniProt P07288, residues 25-261: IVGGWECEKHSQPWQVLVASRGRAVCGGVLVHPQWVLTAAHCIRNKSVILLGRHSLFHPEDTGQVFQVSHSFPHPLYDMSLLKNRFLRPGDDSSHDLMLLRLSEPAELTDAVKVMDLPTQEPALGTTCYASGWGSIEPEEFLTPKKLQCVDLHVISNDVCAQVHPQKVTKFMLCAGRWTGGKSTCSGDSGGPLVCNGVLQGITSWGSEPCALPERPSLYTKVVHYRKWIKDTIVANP

Target: T1, alpha1-anti-chymotrypsin (ACT) (UniProt P01011)
T1 sequence: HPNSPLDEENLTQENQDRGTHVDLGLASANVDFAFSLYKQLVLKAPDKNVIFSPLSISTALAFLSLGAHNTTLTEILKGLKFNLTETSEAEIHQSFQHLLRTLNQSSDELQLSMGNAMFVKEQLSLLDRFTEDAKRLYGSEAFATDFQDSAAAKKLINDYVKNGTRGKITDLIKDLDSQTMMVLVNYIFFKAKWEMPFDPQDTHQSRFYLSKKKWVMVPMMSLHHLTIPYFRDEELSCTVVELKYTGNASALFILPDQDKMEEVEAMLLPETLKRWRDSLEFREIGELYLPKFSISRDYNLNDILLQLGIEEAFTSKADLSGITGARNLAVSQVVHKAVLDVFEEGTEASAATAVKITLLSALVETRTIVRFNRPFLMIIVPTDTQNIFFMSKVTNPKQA
Test: SEC; purified PSA incubated with ACT; complex purified on Sephacryl S-100 eluted with PBS pH 7.1; PSA immunoactivity of the fractions by PSA Delfia kit; peak fractions of approximately 100 kDa and approximately 30 kDa pooled; both purified

- binding: binds
Substance: prostate-specific antigen (PSA) (from UniProt P07288 25-261) (enzyme)
